# Laboratory results as given in the supplement of paper PMC9135407.
# “And” between values parts separate entries of the source, which are not always exact repeats. Equal entries are not always repeated. Structures can show the parent of a compound that is named as a salt. ± gives the standard deviation of the averaged measurements. The list shows a part of the results. Plates or batches differ in their baseline, so values are only roughly comparable.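 Assay uses culture-activated primary human stellate myofibroblasts; lipid droplet recovery indicates inactivation. Measured: proportion of Hoechst-counted cells over a plate-specific Bodipy cutoff, duplicate wells, DMSO and nortriptyline as per-plate negative and positive controls. A hit scores, control-normalized, above the plate's top-tenth-percentile nortriptyline wells or ranks among its three best wells. Final well concentrations not reported.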
# Tested on: primary human hepatic stellate cells (donor 1)
# Test: percent Bodipy-positive cells; higher = more lipid droplet accumulation
# Conditions: 48 h
# [1] = library stock concentration: 3.33 mM
# [2] = library stock concentration: 10 mM
# [3] = library stock concentration: 80 uM
# [4] = library stock concentration: 400 uM
# [5] = library stock concentration: 2 mM
# [6] = library stock concentration: 1 mM
# [7] = library stock concentration: 6.3 mM
smiles,measurement,setting,value
COc1ccccc1OCC(O)COC(N)=O (stereo not given) [Methocarbamol],percent Bodipy-positive cells,,23.8 ± 3.7%
same,percent Bodipy-positive cells,[1],15.7 ± 2.2%
same,percent Bodipy-positive cells,library stock concentration: 8.3 mM,4.35 ± 0.14%
same,percent Bodipy-positive cells,[2],12.9% and 14.7%
O=C1NCCCc2c1oc1ccc(O)cc21,percent Bodipy-positive cells,[3],8.28 ± 3%
same,percent Bodipy-positive cells,[4],14.2 ± 1.2%
same,percent Bodipy-positive cells,[5],10.8 ± 1.4%
same,percent Bodipy-positive cells,[2],12.7 ± 0.84%
CCc1c(Cl)c(O)c(Cl)c(O)c1C(=O)O[C@H]1[C@H](O)[C@H](OC)[C@H](OC/C2=C\C=C\C[C@H](O)/C(C)=C/[C@H](CC)[C@@H](O[C@@H]3OC(C)(C)[C@@H](OC(=O)C(C)C)[C@H](O)[C@@H]3O)/C(C)=C/C(C)=C/C[C@@H]([C@@H](C)O)OC2=O)O[C@@H]1C [Fidaxomicin],percent Bodipy-positive cells,[1],14.6 ± 5.6%
same,percent Bodipy-positive cells,[2],40.3 ± 0.57%
Nc1ccn([C@@H]2CS[C@H](CO)O2)c(=O)n1 [Lamivudine],percent Bodipy-positive cells,[1],4.86 ± 2%
same,percent Bodipy-positive cells,[2],9.13 ± 0.56%
Nc1ccn([C@@H]2CS[C@H](CO)O2)c(=O)n1,percent Bodipy-positive cells,library stock concentration: 9.9 mM,7.61 ± 4.1%
same,percent Bodipy-positive cells,[2],28.4 ± 2.9%
Nc1c2c(nc3ccccc13)CCCC2O (stereo not given) [Hydroxytacrine maleate],percent Bodipy-positive cells,library stock concentration: 9.3 mM,7.03 ± 1.6%
same,percent Bodipy-positive cells,[2],65.7 ± 16%
Cc1cc(N)c2ccccc2[n+]1CCCCCCCCCC[n+]1c(C)cc(N)c2ccccc21 [Dequalinium chloride hydrate],percent Bodipy-positive cells,[2],42.5 ± 32%
Cc1cc(N)c2ccccc2[n+]1CCCCCCCCCC[n+]1c(C)cc(N)c2ccccc21 [Dequalinium dichloride],percent Bodipy-positive cells,,49.8 ± 12%
Cc1cc(N)c2ccccc2[n+]1CCCCCCCCCC[n+]1c(C)cc(N)c2ccccc21 [Dequalinium chloride],percent Bodipy-positive cells,[2],49.5 ± 6.5%
CCCCCCCC/C=C\CCCCCCCC(=O)N[C@H](CO)Cc1ccc(O)cc1,percent Bodipy-positive cells,[6],10.7 ± 1.7%
COC(=O)Nc1nc2cc([S+]([O-])c3ccccc3)ccc2[nH]1 (stereo not given) [Oxfendazole],percent Bodipy-positive cells,[1],6.59 ± 2.9%
same,percent Bodipy-positive cells,[7],5.95% and 8.24%
same,percent Bodipy-positive cells,[2],19.3% and 38.6%
CCCCC[C@@H](O)/C=C/[C@H]1C(=O)C[C@H](O)[C@@H]1CCCCCCCO [Prostaglandin D1 Alcohol],percent Bodipy-positive cells,[6],12.8 ± 3%
C[C@@H]1C(=O)NC2=Nc3cccc(Cl)c3CN21 [Quazinone],percent Bodipy-positive cells,[2],12.4 ± 2.4%
NC1CCN(c2nc3c(cc2F)c(=O)c(C(=O)O)cn3-c2ccc(F)cc2F)C1 (stereo not given) [Tosufloxacin],percent Bodipy-positive cells,library stock concentration: 4.9 mM,5.85 ± 4.7%
NC1CCN(c2nc3c(cc2F)c(=O)c(C(=O)O)cn3-c2ccc(F)cc2F)C1 (stereo not given),percent Bodipy-positive cells,[2],44.8 ± 20%
"O=c1[nH][nH]c2nnc(-c3c(-c4ccccc4)nn4ccccc34)cc12 [ERK Inhibitor II, Negative Control]",percent Bodipy-positive cells,[1],13.55 ± 0.13%
Cn1ccc2cc3c(cc21)CCN3C(=O)Nc1cccnc1,percent Bodipy-positive cells,[2],31.9% and 11.4%
"CCCCC/C=C\CCCC/C=C\C/C=C\CCCC(=O)O [5(Z),8(Z),14(Z)-Eicosatrienoic Acid]",percent Bodipy-positive cells,[6],9.33 ± 0.5%
O=C(O)CP(=O)(O)O [Phosphonoacetic acid],percent Bodipy-positive cells,[2],13 ± 1%
C=CC(=O)Nc1cccc(Nc2nc(Nc3ccc(OCCOC)cc3)ncc2F)c1,percent Bodipy-positive cells,[1],40.7 ± 7.7%
same,percent Bodipy-positive cells,[2],83.8 ± 3.4%
C=CC(=O)Nc1cccc(Nc2nc(Nc3ccc(OCCOC)cc3)ncc2F)c1 [Spebrutinib],percent Bodipy-positive cells,[3],9.09 ± 0.91%
same,percent Bodipy-positive cells,[4],15.4 ± 9%
same,percent Bodipy-positive cells,[5],13.9 ± 2.1%
same,percent Bodipy-positive cells,[2],34.7 ± 1.1%
N#Cc1c(NC(=O)c2cccc3ccccc23)sc2c1CCCC2 [JNK Inhibitor IX],percent Bodipy-positive cells,[2],72.6 ± 7.2%
CCC(=O)Nc1cccc(Oc2nc(Nc3ccc(N4CCN(C)CC4)cc3OC)ncc2Cl)c1 [listing 1 of 2 here],percent Bodipy-positive cells,[3],10.9 ± 1.5%
same,percent Bodipy-positive cells,[4],13 ± 2.9%
same,percent Bodipy-positive cells,[5],27.2 ± 11%
same,percent Bodipy-positive cells,[1],81.9 ± 2.4%
Clc1cccc2c1CN(C1=NCCN1)C2,percent Bodipy-positive cells,[2],6.87 ± 3.1%
O=C(/C=C/c1c(C(=O)O)[nH]c2cc(Cl)cc(Cl)c12)Nc1ccccc1 [Gavestinel],percent Bodipy-positive cells,[2],7.19 ± 1.4%
Nc1ncnc2nc(-c3ccc(N4CCOCC4)nc3)cc(-c3cccc(Br)c3)c12,percent Bodipy-positive cells,[2],81.4 ± 8.5%
CCCCN(CC)c1nc(C)nc2c1c(C)cn2-c1c(C)cc(C)cc1C,percent Bodipy-positive cells,[2],48.4 ± 7.6%
N#CC(C#N)=C(N)/C(C#N)=C/c1cc(O)c(O)c(O)c1 [Tyrphostin 51],percent Bodipy-positive cells,[2],16.4 ± 2.8%
NC(CO)C(=O)NNCc1ccc(O)c(O)c1O (stereo not given) [Benserazide hydrochloride],percent Bodipy-positive cells,,7.96 ± 3.6%
same,percent Bodipy-positive cells,library stock concentration: 6.8 mM,1.69 ± 0.62%
NC(CO)C(=O)NNCc1ccc(O)c(O)c1O (stereo not given) [Benserazide HCl],percent Bodipy-positive cells,[1],7.1 ± 4.2%
same,percent Bodipy-positive cells,library stock concentration: 7.8 mM,5.92 ± 0.64%
same,percent Bodipy-positive cells,[2],10.6 ± 0.35%
CCC(=O)Nc1cccc(Oc2nc(Nc3ccc(N4CCN(C)CC4)cc3OC)ncc2Cl)c1 [listing 2 of 2 here],percent Bodipy-positive cells,[2],96.9 ± 1.9%
Cc1cccc(C(=O)NCN2CCN(c3ccccc3C#N)CC2)c1,percent Bodipy-positive cells,[2],8.45 ± 0.7%
"Cc1cccc(C(=O)NCN2CCN(c3ccccc3C#N)CC2)c1 [PD 168,077 maleate]",percent Bodipy-positive cells,[2],17 ± 1.6%
CN(C)CCCN1c2ccccc2CCc2ccccc21 [Imipramine HCl],percent Bodipy-positive cells,library stock concentration: 7.1 mM,51.13 ± 0.19%
CN(C)CCCN1c2ccccc2CCc2ccccc21 [Imipramine hydrochloride],percent Bodipy-positive cells,,71.2 ± 2.9%
same,percent Bodipy-positive cells,[7],43.8 ± 2%
same,percent Bodipy-positive cells,[2],65 ± 4.6%
CN(C)CCCN1c2ccccc2CCc2ccccc21,percent Bodipy-positive cells,[2],80 ± 5%
C[C@H]1COc2c(N3CCN(C)CC3)c(F)cc3c(=O)c(C(=O)O)cn1c23 [Levofloxacin],percent Bodipy-positive cells,[1],12.4 ± 0.87%
C[C@H]1COc2c(N3CCN(C)CC3)c(F)cc3c(=O)c(C(=O)O)cn1c23,percent Bodipy-positive cells,[2],10.5 ± 3.3%
NCCC[C@H](N)CC(=O)N[C@H]1CNC(=O)[C@H]([C@H]2C[C@H](O)NC(N)=N2)NC(=O)/C(=C/NC(N)=O)NC(=O)[C@H](CO)NC(=O)[C@H](CO)NC1=O [Viomycin sulfate],percent Bodipy-positive cells,,7.51 ± 3.1%
CCN(CC)CCCCN1c2ccccc2Oc2ccc(Cl)cc21 [Akt Inhibitor X],percent Bodipy-positive cells,[1],30.3 ± 0.51%
CCN(CC)CCCCN1c2ccccc2Oc2ccc(Cl)cc21 [10-DEBC hydrochloride],percent Bodipy-positive cells,[2],94.2 ± 6%
CCCC(=O)OCOC(=O)C1=C(C)NC(C)=C(C(=O)OC)C1c1cccc(Cl)c1Cl (stereo not given) [Clevidipine Butyrate],percent Bodipy-positive cells,[1],6.8 ± 1.9%
same,percent Bodipy-positive cells,[2],16.2 ± 1.4%
CN(C/C=C/C#CC(C)(C)C)Cc1cccc2ccccc12 [Terbinafine],percent Bodipy-positive cells,[1],9.86 ± 3.5%
same,percent Bodipy-positive cells,[2],11.6 ± 0.38%
CN(C/C=C/C#CC(C)(C)C)Cc1cccc2ccccc12 [Terbinafine HCl],percent Bodipy-positive cells,[1],8.68 ± 2.5%
same,percent Bodipy-positive cells,library stock concentration: 6.9 mM,10.7 ± 5.7%
same,percent Bodipy-positive cells,[2],18.8 ± 5.9%
CN(C/C=C/C#CC(C)(C)C)Cc1cccc2ccccc12 [Terbinafine hydrochloride],percent Bodipy-positive cells,library stock concentration: 6.1 mM,15.8 ± 5.6%
CN(C/C=C/C#CC(C)(C)C)Cc1cccc2ccccc12,percent Bodipy-positive cells,[2],13.8 ± 2.2%
CN1CCN(c2ccc(OC(F)(F)F)c(Nc3ncc4c(n3)-c3c(c(C(N)=O)nn3CCO)CC4)c2)CC1,percent Bodipy-positive cells,[3],8.457 ± 0.039%
same,percent Bodipy-positive cells,[4],6.31 ± 3%
same,percent Bodipy-positive cells,[5],16.8 ± 1.4%
same,percent Bodipy-positive cells,[1],54.7 ± 1.3%
same,percent Bodipy-positive cells,[2],81 ± 3.3%
O=c1[nH]cnc2c1ncn2[C@H]1CC[C@@H](CO)O1 [Didanosine],percent Bodipy-positive cells,,24.7 ± 4.3%

# Random excerpt: 6 entries already listed
smiles,measurement,setting,value
C[C@H]1COc2c(N3CCN(C)CC3)c(F)cc3c(=O)c(C(=O)O)cn1c23 [Levofloxacin],percent Bodipy-positive cells,[1],12.4 ± 0.87%
CN(C/C=C/C#CC(C)(C)C)Cc1cccc2ccccc12 [Terbinafine],percent Bodipy-positive cells,[1],9.86 ± 3.5%
Nc1ncnc2nc(-c3ccc(N4CCOCC4)nc3)cc(-c3cccc(Br)c3)c12,percent Bodipy-positive cells,[2],81.4 ± 8.5%
CCCCN(CC)c1nc(C)nc2c1c(C)cn2-c1c(C)cc(C)cc1C,percent Bodipy-positive cells,[2],48.4 ± 7.6%
CN(C)CCCN1c2ccccc2CCc2ccccc21,percent Bodipy-positive cells,[2],80 ± 5%
O=c1[nH]cnc2c1ncn2[C@H]1CC[C@@H](CO)O1 [Didanosine],percent Bodipy-positive cells,,24.7 ± 4.3%
